# In all, about 33,000 sequences were measured (“E-score (-0.5 to 0.5)”: median about -0.015, highest 2% from about 0.3 on). Some of the results follow.
# Molecular target: T1, Abf1 (UniProt P14164)
# T1 sequence: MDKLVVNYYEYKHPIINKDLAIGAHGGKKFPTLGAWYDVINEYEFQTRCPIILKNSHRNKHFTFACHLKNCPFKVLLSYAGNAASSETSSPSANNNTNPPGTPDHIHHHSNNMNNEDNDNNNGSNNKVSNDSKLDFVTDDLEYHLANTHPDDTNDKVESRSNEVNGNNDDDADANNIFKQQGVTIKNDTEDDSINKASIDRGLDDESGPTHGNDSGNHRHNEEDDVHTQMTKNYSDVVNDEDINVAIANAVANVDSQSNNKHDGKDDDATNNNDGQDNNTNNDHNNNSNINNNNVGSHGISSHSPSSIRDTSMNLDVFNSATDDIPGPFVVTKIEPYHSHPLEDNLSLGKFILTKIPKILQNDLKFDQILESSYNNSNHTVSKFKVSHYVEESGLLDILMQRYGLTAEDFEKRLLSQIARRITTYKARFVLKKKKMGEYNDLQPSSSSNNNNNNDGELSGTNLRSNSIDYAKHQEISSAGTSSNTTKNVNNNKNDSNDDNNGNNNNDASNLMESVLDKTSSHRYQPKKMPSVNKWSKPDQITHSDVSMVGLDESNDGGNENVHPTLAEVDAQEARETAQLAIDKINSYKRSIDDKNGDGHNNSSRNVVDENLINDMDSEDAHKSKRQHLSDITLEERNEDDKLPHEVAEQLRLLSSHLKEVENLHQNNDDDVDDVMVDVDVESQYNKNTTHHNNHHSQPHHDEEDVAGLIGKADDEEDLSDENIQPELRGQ
# Assay: PBM E-score (8-mer binding enrichment) (E-score (-0.5 to 0.5)); higher = stronger / more preferred TF binding
# Conditions: protein concentration: 200 nM; construct: GST-full length
# How it was run: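 Bound GST-tagged yeast transcription factors, applied at about 100-200 nM to double-stranded universal all-10-mer Agilent arrays, were detected with fluorescent anti-GST. Scans were normalised with masliner. A modified Wilcoxon-Mann-Whitney statistic, the E-score, was assigned to each ungapped eight-base word pooled with its reverse complement by the Universal PBM Analysis Suite.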
row,Sequence,PBM E-score
1,AATGTCAT,0.306
2,AAAAGACT,-0.162
3,TATGTTAA,0.0944
4,GGCCCTGA,-0.15
5,CGCGACTA,0.134
6,CAGCCGGG,-0.16
7,GTGACGGA,0.149
8,ATACAGCA,0.0274
9,TACTTGGA,0.136
10,CATATATG,-0.107
11,CGCAGGAC,-0.0446
12,CAAACTCA,0.0162
13,ACCGTCAG,0.0392
14,CGCCAATC,-0.235
15,TAGGCTGA,-0.141
16,TAGGGCCA,-0.224
17,AAAAGTTG,0.0813
18,ATTAGTTC,0.0653
19,ACCTTTCC,0.106
20,CCCACTCG,-0.0264
21,CGAGGGGC,-0.102
22,AGCGGGCC,-0.0217
23,CGCCCTCC,-0.307
24,GCCAGGGC,-0.238
25,AAGGACTA,-0.187

# Some of the entries above, set out differently:
row	Sequence	PBM E-score
4	GGCCCTGA	-0.15
7	GTGACGGA	0.149
8	ATACAGCA	0.0274
15	TAGGCTGA	-0.141
19	ACCTTTCC	0.106
21	CGAGGGGC	-0.102
22	AGCGGGCC	-0.0217

# (further entries)

row,Sequence,PBM E-score
1,CTCTGCCC,-0.12
2,TACGGTGA,0.267
3,CACCAGGA,-0.184
4,CTCAGCAG,-0.185
5,CGTTCACA,0.151
6,CCGAACAA,-0.0373
7,AAGGTTGA,0.0275
8,AATCTAGT,0.0821
9,AGGGGGAA,-0.373
10,TCAGAAAA,-0.087
11,AAGGTCAC,0.187
12,CCTGCTGA,0.0985
13,CCCCTCTA,-0.244
14,AACTACAG,-0.197
15,GAGCAAGC,-0.0234
16,ACTTCTTC,0.109
17,GACCCTAA,0.012
18,GAGTTTAA,-0.0806
19,CGTATTAC,0.17
20,CGCTTGAC,-0.0445
21,CGGATGAC,0.0966
22,CTCTGAAC,-0.209
23,ATTCAGGG,-0.117
24,CGCATTGA,-0.116
25,CCCAGTCG,-0.168

row,Sequence,PBM E-score
1,AAACGTAC,0.175
2,ATGCTACG,0.0618
3,TCTCGTAA,0.306
4,GTATTCAC,0.101
5,CCGTGCTA,0.124
6,ACTCAGCC,-0.0628
7,ATACGTAG,0.216
8,GTTCTGCA,0.0226
9,AATTTCTG,-0.0905
10,AAATTTAA,0.104
11,GAGCATAA,0.0686
12,CAAGCGCA,0.2
13,CTTCTGAC,-0.0739
14,ACGAGCTG,-0.0108
15,CCATAGGC,-0.255
16,TGCTCCAA,-0.0406
17,ATCACAGG,-0.0296
18,ACATGAAC,-0.0565
19,TAAAGACA,-0.183
20,CCACCAAC,0.0464
21,CAGGCTGA,-0.188
22,GAATGCTC,-0.0235
23,CGCCTCTC,-0.306
24,ATGACAAT,0.344
25,CTCATAAC,-0.0385

row,Sequence,PBM E-score
1,ATGAATGC,-0.115
2,TCGCTACA,-0.0917
3,ACCGGCGT,-0.0929
4,CGCAAAAC,-0.0968
5,ACTGCACT,-0.0247
6,ACGCCTTC,-0.234
7,AGACCTCT,-0.235
8,ATAGGTAA,0.0844
9,CACGAATG,0.18
10,CTTGAGAC,-0.114
11,CATGACCG,0.0551
12,AGTTAATA,0.154
13,AGACAGCT,-0.191
14,CGAATCGC,-0.105
15,AGGGTGAT,0.335
16,CTCACCGC,0.0255
17,GCACCCGC,-0.155
18,TCCTTCCA,-0.07
19,CATTATTC,0.0906
20,ATCCTGCG,-0.0659
21,ATAGGTCG,0.0721
22,ACACAAGG,-0.135
23,GGGAAGAA,-0.136
24,ACTGCACA,-0.0157
25,CATCGTCG,0.231

row,Sequence,PBM E-score
1,ATGCCCAT,-0.205
2,CTTTGAGC,-0.128
3,AGTCGCCA,-0.21
4,CTCTTAAG,-0.0657
5,ATCCCCGG,-0.21
6,CGAAGACC,-0.0723
7,AAGTGCCC,-0.141
8,CTATGGGA,-0.0561
9,GACGATCC,0.179
10,ACGCGGCG,-0.0292
11,ACCTTTCA,0.0936
12,TGACGTCA,0.314
13,AAACCATG,-0.0371
14,GTCCTAGA,0.188
15,CTGCTGAC,-0.0193
16,CTAATCTA,-0.0706
17,GAACACGC,-0.0987
18,AGAACAGC,-0.0106
19,ATCATAGC,0.152
20,GAACTACC,-0.19
21,CTGATTGC,-0.12
22,GATACAGC,-0.195
23,ACGCTCAC,0.157
24,GTCAGATA,-0.052
25,CTCGGAGA,-0.027

row,Sequence,PBM E-score
1,ATATCTAA,0.131
2,AAATCGGG,0.0447
3,TCTTAAGA,0.165
4,ATATTGTC,0.172
5,GCCCAACC,-0.09
6,CAGACACG,-0.0904
7,CTCCAATC,-0.0529
8,ATGCTAAG,-0.119
9,AACGTGTG,0.0261
10,AAGAGCCT,-0.216
11,AGTAGCAT,-0.0673
12,AAACTTGA,-0.168
13,ACGCACTC,-0.113
14,AGTTGCAA,-0.093
15,AAGACTCA,-0.212
16,ATGCTGCA,-0.182
17,ACTTTTCT,0.111
18,GCCCCCCA,-0.464
19,AAACAGTT,0.0109
20,GATTGGCC,-0.0494
21,GCTACAGC,-0.114
22,ACTGCCGA,0.0232
23,CACACAAC,0.00157
24,ATAAACAG,-0.186
25,CGGTTATC,0.103

row,Sequence,PBM E-score
1,GGTAGATA,-0.0169
2,AATAATGG,0.146
3,TAACTAGA,0.0978
4,CAATCACG,0.13
5,TGTAAGAA,0.101
6,TCCGGCAA,-0.187
7,CGAGGTAA,-0.0859
8,CTTAGGTA,0.0631
9,AACGACTA,0.269
10,AGAGACCA,-0.0401
11,AACCCGCT,-0.17
12,ACTGAATA,0.0703
13,ATGATACA,0.202
14,AAATACTT,0.256
15,GGCGTAAC,-0.247
16,ACATACGC,-0.0157
17,GCCCAGCC,-0.164
18,AAAACGGT,-0.0129
19,ATTTTGAC,0.117
20,CTACCGAC,-0.0536
21,AATCACAG,-0.00407
22,CAATTACG,-0.0276

# — the supplement of paper PMC3334620
